Source: PubChem BioAssay AID188 (DTP/NCI, 2004)
Values are animals surviving of animals treated; these mice carried no tumour. Counts of survivors are from the toxicity check (mostly the fifth day) where no day follows; animals may have died later. Schedules are NCI's codes, read here as Q, the interval in days (D) or hours (H), X, the number of doses.

System: CD2F1 mice, nontumored, toxicity/survival
Test: NCI In Vivo Anticancer Drug Screen. Data for tumor model Nontumored Animals (Toxicity Test) in CD2F1 (CDF1) mice
[1] = dose: 1.0 mg/kg/injection, schedule: Q01DX001 (ip), vehicle: DMSO
[2] = dose: 10.0 mg/kg/injection, schedule: Q01DX001 (ip), vehicle: DMSO
[3] = dose: 100.0 mg/kg/injection, schedule: Q01DX001 (ip), vehicle: DMSO
[4] = dose: 1.0 mg/kg/injection, schedule: Q01DX001 (ip), vehicle: other
[5] = dose: 10.0 mg/kg/injection, schedule: Q01DX001 (ip), vehicle: other
[6] = dose: 100.0 mg/kg/injection, schedule: Q01DX001 (ip), vehicle: other

SMILES: CC(=O)Nc1ncc2ccccc2c1-c1ccc(NC(=O)CN(CCO)CCO)cc1
- survivor count [1]: 2 of 2
- survivor count (dose: 1.0 mg/kg/injection, schedule: Q01DX001 (ip), vehicle: olive oil, sesame oil, peanut oil): 2 of 2
- survivor count [2]: 2 of 2
- survivor count (dose: 10.0 mg/kg/injection, schedule: Q01DX001 (ip), vehicle: olive oil, sesame oil, peanut oil): 2 of 2
- survivor count [3]: 2 of 2
- survivor count (dose: 100.0 mg/kg/injection, schedule: Q01DX001 (ip), vehicle: olive oil, sesame oil, peanut oil): 2 of 2

SMILES: CN(C)N=Nc1ccc(C(N)=O)cc1
- survivor count (dose: 59.0 mg/kg/injection, schedule: Q01DX009 (ip), vehicle: Klucel (hydroxypropylcellulose) (HPC)): 10 of 10
- survivor count (dose: 89.0 mg/kg/injection, schedule: Q01DX009 (ip), vehicle: Klucel (hydroxypropylcellulose) (HPC)): 10 of 10
- survivor count (dose: 133.0 mg/kg/injection, schedule: Q01DX009 (ip), vehicle: Klucel (hydroxypropylcellulose) (HPC)): 10 of 10
- survivor count (dose: 200.0 mg/kg/injection, schedule: Q01DX009 (ip), vehicle: Klucel (hydroxypropylcellulose) (HPC)): 6 of 10
- survivor count (dose: 300.0 mg/kg/injection, schedule: Q01DX009 (ip), vehicle: Klucel (hydroxypropylcellulose) (HPC)): 0 of 10

SMILES: CC(=O)Nc1ccc(-c2c(N)ncc3ccccc23)cc1
- survivor count [1]: 2 of 2
- survivor count [2]: 2 of 2
- survivor count [3]: 2 of 2

SMILES: CN(C)c1ccc(/C=C/c2nc(N)nc(N)c2[N+](=O)[O-])cc1
- survivor count (dose: 1.0 mg/kg/injection, schedule: Q01DX001 (ip), vehicle: water): 2 of 2
- survivor count (dose: 10.0 mg/kg/injection, schedule: Q01DX001 (ip), vehicle: water): 2 of 2
- survivor count (dose: 100.0 mg/kg/injection, schedule: Q01DX001 (ip), vehicle: water): 2 of 2

SMILES: Oc1cc2c3c(c1)-c1c(ccc(O)c1O)CC3NCC2 (stereo not given)
- survivor count [1]: 2 of 2
- survivor count [2]: 2 of 2
- survivor count [3]: 1 of 2

SMILES: CC(=O)Nc1nc(Br)c2ccccc2c1-c1ccc(N(CCO)CCO)cc1
- survivor count [4]: 2 of 2
- survivor count [5]: 2 of 2
- survivor count [6]: 2 of 2

SMILES: COc1cc2c3c(c1)-c1c(ccc(OC)c1Oc1nnnn1-c1ccccc1)CC3N(C)CC2 (stereo not given)
- survivor count [4]: 2 of 2
- survivor count [5]: 2 of 2
- survivor count [6]: 2 of 2

SMILES: CC(=O)Nc1nc(Br)c2ccccc2c1-c1ccc(N(CCO)CCOS(C)(=O)=O)cc1
- survivor count [1]: 1 of 2
- survivor count [2]: 2 of 2
- survivor count [3]: 2 of 2

SMILES: Cc1ncc(CNC(=O)N(CCCl)N=O)c(N)n1
- survivor count (dose: 22.0 mg/kg/injection, schedule: Q01DX001 (ip), vehicle: saline): 10 of 10
- survivor count (dose: 33.0 mg/kg/injection, schedule: Q01DX001 (ip), vehicle: saline): 10 of 10
- survivor count (dose: 44.0 mg/kg/injection, schedule: Q01DX001 (ip), vehicle: saline): 10 of 10
- survivor count (dose: 66.0 mg/kg/injection, schedule: Q01DX001 (ip), vehicle: saline): 10 of 10
- survivor count (dose: 100.0 mg/kg/injection, schedule: Q01DX001 (ip), vehicle: saline): 10 of 10
- survivor count (dose: 150.0 mg/kg/injection, schedule: Q01DX001 (ip), vehicle: saline): 10 of 10
